Reference: article PMC11471967

Test system: RelA (p65), human CTL nuclear extract + NF-kB1 p50, human CTL nuclear extract + PPARδ, human CTL nuclear extract
Experiment: EMSA with Western blot of the gel
Conditions: 5 ug, EMSA: LightShift kit, 5 ug nuclear extract, 4% nondenaturing gel, SYBR Green, TransAM kit per vendor, pH and temperature not stated, protein in an extract, label: none (SYBR Green stain)

“AGTTGAGGGGACTTTCCCAGGC (double strand) [NF-kB consensus oligonucleotide (Rockland K-025)]”: binds.

For at least one entry, the source does not settle the construct or the ends of the probe. Results from cells or extracts need not show a direct contact.
